Positions count from the first letter of the chain named. For at least one entry, the source does not settle the construct or the ends of the probe. Results from cells or extracts need not show a direct contact. For some of these results: Where a protein sequence is shown, tags need not be part of it.
Key:
Assay in all cases: pull-down
[1] = molecular target: VIM (vimentin) (Homo sapiens) (UniProt P08670); details: thioaptamer (PS positions not stated); emPAI 2.7; cross-linked pulldown and MS; absent in R4 control; protein in cells; label: biotin; single-stranded DNA
[2] = molecular target: HSPD1 (printed HSPD1 + FIG. 4 legend HSPD90) (Homo sapiens) (UniProt P10809); details: thioaptamer (PS positions not stated), protein in cells, label: biotin, single-stranded DNA
KRT6B (Homo sapiens) = molecular target: T1, KRT6B (Homo sapiens) (UniProt P04259); details: thioaptamer (PS positions not stated); emPAI ~0.38; cross-linked pulldown and MS; absent in R4 control; protein in cells; label: biotin; single-stranded DNA
T1 sequence (looked up, limits assumed): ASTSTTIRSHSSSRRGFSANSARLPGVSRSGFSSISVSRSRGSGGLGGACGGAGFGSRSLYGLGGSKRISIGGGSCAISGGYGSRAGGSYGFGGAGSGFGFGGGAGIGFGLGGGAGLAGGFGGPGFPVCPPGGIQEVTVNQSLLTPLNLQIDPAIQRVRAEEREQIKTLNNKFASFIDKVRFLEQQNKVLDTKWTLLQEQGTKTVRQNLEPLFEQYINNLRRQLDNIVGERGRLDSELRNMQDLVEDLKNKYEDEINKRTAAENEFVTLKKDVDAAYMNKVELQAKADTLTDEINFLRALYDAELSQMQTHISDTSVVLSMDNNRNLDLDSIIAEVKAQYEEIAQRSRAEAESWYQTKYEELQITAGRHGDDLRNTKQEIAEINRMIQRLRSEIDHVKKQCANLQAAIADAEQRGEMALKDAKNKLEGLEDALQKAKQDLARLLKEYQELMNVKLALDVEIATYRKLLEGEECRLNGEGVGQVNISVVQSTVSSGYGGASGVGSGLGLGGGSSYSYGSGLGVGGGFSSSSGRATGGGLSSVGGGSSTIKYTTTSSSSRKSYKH

Amino acid sequences for entries named in this document (tags omitted). Residues count along the entry.
UniProt P08670, 2-466: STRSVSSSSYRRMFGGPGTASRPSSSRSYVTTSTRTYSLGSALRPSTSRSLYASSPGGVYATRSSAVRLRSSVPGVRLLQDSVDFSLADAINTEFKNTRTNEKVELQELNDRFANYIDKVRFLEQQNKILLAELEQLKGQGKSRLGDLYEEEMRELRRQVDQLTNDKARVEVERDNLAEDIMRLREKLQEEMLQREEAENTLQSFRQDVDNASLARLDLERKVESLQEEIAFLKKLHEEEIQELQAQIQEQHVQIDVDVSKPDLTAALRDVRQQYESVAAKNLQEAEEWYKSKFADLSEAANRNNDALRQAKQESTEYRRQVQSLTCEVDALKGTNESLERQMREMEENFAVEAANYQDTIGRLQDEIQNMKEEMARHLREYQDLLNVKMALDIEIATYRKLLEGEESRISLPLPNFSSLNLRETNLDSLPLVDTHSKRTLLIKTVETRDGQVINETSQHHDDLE
UniProt P10809, 27-573: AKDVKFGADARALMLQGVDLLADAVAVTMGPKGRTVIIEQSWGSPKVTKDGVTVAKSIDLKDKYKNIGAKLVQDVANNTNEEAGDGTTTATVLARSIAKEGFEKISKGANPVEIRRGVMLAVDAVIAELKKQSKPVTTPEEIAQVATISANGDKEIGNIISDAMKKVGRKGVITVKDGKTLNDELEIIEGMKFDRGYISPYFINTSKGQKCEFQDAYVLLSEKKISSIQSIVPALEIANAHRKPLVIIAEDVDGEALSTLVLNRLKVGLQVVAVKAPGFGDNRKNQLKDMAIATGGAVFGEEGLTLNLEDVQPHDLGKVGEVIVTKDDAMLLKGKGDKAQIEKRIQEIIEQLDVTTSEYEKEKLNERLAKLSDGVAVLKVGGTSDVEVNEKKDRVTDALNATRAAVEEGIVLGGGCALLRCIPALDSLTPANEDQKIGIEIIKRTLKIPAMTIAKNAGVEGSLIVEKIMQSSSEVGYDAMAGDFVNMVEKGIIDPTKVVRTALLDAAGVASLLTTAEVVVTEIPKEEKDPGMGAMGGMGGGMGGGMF

KRT6A (Homo sapiens) = molecular target: T2, KRT6A (Homo sapiens) (UniProt P02538); details: thioaptamer (PS positions not stated), cross-linked pulldown and MS, absent in R4 control, protein in cells, label: biotin, single-stranded DNA
T2 sequence (looked up, limits assumed): T1 sequence (looked up, limits assumed) with I35V, A154T, D191E, N226S, N240G, L248F, I364V, T534I

Sequence: CCCCCCACGGTCTCCGCTCCACAAGTCCAC [Tau_3]
- binding result [1]: binds
- binding result ([2]; emPAI ~0.62, cross-linked pulldown and MS, absent in R4 control): binds

Sequence: CCCCCCACGGTCTCCGCTCCACAAGTTCAC [Tau_1]
- binding result (KRT6B (Homo sapiens)): binds
- binding result (KRT6A (Homo sapiens); emPAI ~0.38): binds
- binding result [2]: binds

Sequence: CTCGTCCCACCACAACATTATCTCAACGCC [Tau_4]
- binding result (KRT6A (Homo sapiens); emPAI ~0.79): binds
- binding result ([2]; emPAI ~1.08, cross-linked pulldown and MS, absent in R4 control): binds

Source: US20210128755
